These are yes or no findings as the source states them, for the method shown. In cells and extracts the contact can be indirect. Some binding calls cover weakened binding; strength is not graded here. Where a sequence is shown, tags or fusion partners need not be part of it.
Each molecule was assayed against T1, calgranulin B-FLAG (UniProt P06702) (assay: co-IP; lysate of lentivirus-infected HCT-116 cells in IP buffer (150 mM NaCl, 25 mM HEPES-KOH pH 7.5, 0.5% Triton X-100, 2 mM EDTA) on anti-FLAG M2 affinity gel, 2 h at 4°C; western blot with specific antibodies).
T1 sequence: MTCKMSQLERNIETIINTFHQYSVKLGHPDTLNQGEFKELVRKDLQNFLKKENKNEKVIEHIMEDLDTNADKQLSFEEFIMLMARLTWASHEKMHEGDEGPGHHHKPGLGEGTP

The chains behind the UniProt entries cited, without tags or fusion partners.
UniProt O14576: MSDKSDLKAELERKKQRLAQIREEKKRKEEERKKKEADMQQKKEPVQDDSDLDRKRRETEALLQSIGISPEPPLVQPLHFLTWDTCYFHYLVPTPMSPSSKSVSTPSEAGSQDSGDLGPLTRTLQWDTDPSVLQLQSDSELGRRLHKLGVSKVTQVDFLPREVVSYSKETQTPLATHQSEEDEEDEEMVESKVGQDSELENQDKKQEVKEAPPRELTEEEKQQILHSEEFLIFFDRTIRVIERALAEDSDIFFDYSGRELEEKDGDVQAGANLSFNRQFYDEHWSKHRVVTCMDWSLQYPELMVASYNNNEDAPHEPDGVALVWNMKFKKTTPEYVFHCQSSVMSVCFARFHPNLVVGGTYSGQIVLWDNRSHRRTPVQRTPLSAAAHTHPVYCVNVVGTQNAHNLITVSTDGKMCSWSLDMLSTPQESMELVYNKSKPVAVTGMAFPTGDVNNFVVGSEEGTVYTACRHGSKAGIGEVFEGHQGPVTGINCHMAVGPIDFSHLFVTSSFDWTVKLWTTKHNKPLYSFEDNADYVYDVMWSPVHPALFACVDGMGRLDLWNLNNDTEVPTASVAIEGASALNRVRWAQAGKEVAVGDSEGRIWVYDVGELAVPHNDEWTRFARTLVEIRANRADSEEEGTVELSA

Row | Molecule | binding
1 | dynein intermediate chain 1 (from UniProt O14576 1-645) | binds
2 | flotillin-1 (protein, UniProt O75955 1-427) MFFTCGPNEAMVVSGFCRSPPVMVAGGRVFVLPCIQQIQRISLNTLTLNVKSEKVYTRHGVPISVTGIAQVKIQGQNKEMLAAACQMFLGKTEAEIAHIALETLEGHQRAIMAHMTVEEIYKDRQKFSEQVFKVASSDLVNMGISVVSYTLKDIHDDQDYLHSLGKARTAQVQKDARIGEAEAKRDAGIREAKAKQEKVSAQYLSEIEMAKAQRDYELKKAAYDIEVNTRRAQADLAYQLQVAKTKQQIEEQRVQVQVVERAQQVAVQEQEIARREKELEARVRKPAEAERYKLERLAEAEKSQLIMQAEAEAASVRMRGEAEAFAIGARARAEAEQMAKKAEAFQLYQEAAQLDMLLEKLPQVAEEISGPLTSANKITLVSSGSGTMGAAKVTGEVLDILTRLPESVERLTGVSISQVNHKPLRTA | binds
3 | CD59 glycoprotein (protein, UniProt P13987 26-102) LQCYNCPNPTADCKTAVNCSSDFDACLITKAGLQVYNKCWKFEHCNFNDVTTRLRENELTYYCCKKDLCNFNEQLEN | binds

Source: PMC5351672
